No constants are given. Whether binding was seen depends on the method and setting.

The target of this assay is Arabidopsis thaliana BAM1 (Arabidopsis thaliana) (UniProt Q9LIR6). In words: SEC-SAXS.

B1: Arabidopsis thaliana BAM1 (enzyme, UniProt Q9LIR6 42-575)
chain: AMNRNYKAHGTDPSPPMSPILGATRADLSVACKAFAVENGIGTIEEQRTYREGGIGGKKEGGGGVPVFVMMPLDSVTMGNTVNRRKAMKASLQALKSAGVEGIMIDVWWGLVEKESPGTYNWGGYNELLELAKKLGLKVQAVMSFHQCGGNVGDSVTIPLPQWVVEEVDKDPDLAYTDQWGRRNHEYISLGADTLPVLKGRTPVQCYADFMRAFRDNFKHLLGETIVEIQVGMGPAGELRYPSYPEQEGTWKFPGIGAFQCYDKYSLSSLKAAAETYGKPEWGSTGPTDAGHYNNWPEDTQFFKKEGGGWNSEYGDFFLSWYSQMLLDHGERILSSAKSIFENMGVKISVKIAGIHWHYGTRSHAPELTAGYYNTRFRDGYLPIAQMLARHNAIFNFTCIEMRDHEQPQDALCAPEKLVNQVALATLAAEVPLAGENALPRYDDYAHEQILKASALNLDQNNEGEPREMCAFTYLRMNPELFQADNWGKFVAFVKKMGEGRDSHRCREEVEREAEHFVHVTQPLVQEAAVALTH
As to B1, the binding result was “no binding”.

Values taken from doi:10.1101/2021.10.14.464379.
